PubChem BioAssay AID504808 | Drosophila RNAi Screening Center, 2011
The screen tested about 21,000 reagents; below is an unselected part of those that have a named target and a result. Of all reagents, 18 (0.084%) are marked active. 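Raw counts without plate normalisation, one of two replicates; the ratio scores behind the calls were not deposited.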 Entries without a mark were called inactive. Reagents against one gene are numbered here. A plus sign joins genes that one reagent is predicted to hit. Not given: the amount of reagent, the time to read-out.

Screen: 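Genes whose loss lifts activity of an E2F-responsive reporter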 (primary screen)
System: Drosophila S2 cells
Reagents: long dsRNA against Drosophila genes
Measurement: 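Firefly luciferase driven by E2F sites, normalised to Renilla luciferase on the same minimal promoter, measured by plate reader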
Scale: E2F firefly: higher = more E2F reporter activity; Renilla normaliser: higher = more normaliser reporter signal
Active means: 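Called active if the normalised E2F reporter went up by over 50%; the cutoff is arbitrary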

Silencing of CG1552 came out at: E2F firefly, rep 1 = 1.17e5; Renilla normaliser, rep 1 = 5803.
Knock-down of CG34417 #1 resulted in: E2F firefly, rep 1 = 80618; Renilla normaliser, rep 1 = 2666.
CG34417 #2 scored E2F firefly, rep 1 = 50841; Renilla normaliser, rep 1 = 3836.
With knock-down of CG34417 #3, the record shows E2F firefly, rep 1 = 7874; Renilla normaliser, rep 1 = 744.
Silencing of CG1835 resulted in: E2F firefly, rep 1 = 1.41e5; Renilla normaliser, rep 1 = 6188.
Depletion of Unc50 (Unc50 RNA binding protein) resulted in: E2F firefly, rep 1 = 1.46e5; Renilla normaliser, rep 1 = 6733.
Depletion of Jhbp3 (Juvenile hormone binding protein 3) resulted in: E2F firefly, rep 1 = 1.24e5; Renilla normaliser, rep 1 = 6075.
For Cph (Chronophage) #1 the deposit lists E2F firefly, rep 1 = 77392; Renilla normaliser, rep 1 = 2448.
Knock-down of Cph (Chronophage) #2 gave: E2F firefly, rep 1 = 53402; Renilla normaliser, rep 1 = 4074.
After knock-down of COX8 (Cytochrome c oxidase subunit 8), the record shows E2F firefly, rep 1 = 1.35e5; Renilla normaliser, rep 1 = 6445.
With knock-down of Ccm3 (Cerebral cavernous malformation 3), the screen gave E2F firefly, rep 1 = 1.13e5; Renilla normaliser, rep 1 = 5234.
Silencing of sens (senseless) gave: E2F firefly, rep 1 = 79825; Renilla normaliser, rep 1 = 3446.
wech scored E2F firefly, rep 1 = 85423; Renilla normaliser, rep 1 = 3559.
CG43394 gave E2F firefly, rep 1 = 1.38e5; Renilla normaliser, rep 1 = 6462.
Knock-down of CG8195 resulted in: E2F firefly, rep 1 = 73213; Renilla normaliser, rep 1 = 3652.
Knock-down of per (period) gave: E2F firefly, rep 1 = 1.32e5; Renilla normaliser, rep 1 = 5666.
For neur (neuralized), the entry reads E2F firefly, rep 1 = 65265; Renilla normaliser, rep 1 = 2871.
With knock-down of Dci (Dodecenoyl-CoA delta-isomerase), the record shows E2F firefly, rep 1 = 60518; Renilla normaliser, rep 1 = 3110.
Rpi (Ribose-5-phosphate isomerase) scored E2F firefly, rep 1 = 1.06e5; Renilla normaliser, rep 1 = 4030.

No new results follow: entries from further up.
CG8195: E2F firefly, rep 1 = 73213; Renilla normaliser, rep 1 = 3652
per (period): E2F firefly, rep 1 = 1.32e5; Renilla normaliser, rep 1 = 5666

The listing continues.
S (Star) showed E2F firefly, rep 1 = 1.42e5; Renilla normaliser, rep 1 = 5812.
Depletion of Cks30A (Cyclin-dependent kinase subunit 30A) came out at: E2F firefly, rep 1 = 88088; Renilla normaliser, rep 1 = 3610.
For Cubn (Cubilin) the deposit lists E2F firefly, rep 1 = 7571; Renilla normaliser, rep 1 = 860.
Zw (Zwischenferment) scored E2F firefly, rep 1 = 1.52e5; Renilla normaliser, rep 1 = 5239.
For Fancd2, the entry reads E2F firefly, rep 1 = 1.18e5; Renilla normaliser, rep 1 = 7725.
For aralar1 #1, the entry reads E2F firefly, rep 1 = 86375; Renilla normaliser, rep 1 = 2725.
Against aralar1 #2, the values are E2F firefly, rep 1 = 1682; Renilla normaliser, rep 1 = 992.
After knock-down of egr (eiger), the record shows E2F firefly, rep 1 = 1.41e5; Renilla normaliser, rep 1 = 4820.
For Mrm2 (Mitochondrial rRNA methyltransferase 2), the values are E2F firefly, rep 1 = 1.45e5; Renilla normaliser, rep 1 = 6401.
Bre1 showed E2F firefly, rep 1 = 77125; Renilla normaliser, rep 1 = 3245.
For CG10126, the values are E2F firefly, rep 1 = 73682; Renilla normaliser, rep 1 = 3703.
AstA (Allatostatin A) scored E2F firefly, rep 1 = 1.12e5; Renilla normaliser, rep 1 = 5333.
Depletion of CysRS-m (Cysteinyl-tRNA synthetase, mitochondrial) resulted in: E2F firefly, rep 1 = 2557; Renilla normaliser, rep 1 = 187.
Vps50 (Vacuolar protein sorting 50) showed E2F firefly, rep 1 = 76344; Renilla normaliser, rep 1 = 3094.
CG8191 + CG12379 scored E2F firefly, rep 1 = 1.63e5; Renilla normaliser, rep 1 = 6254.
Knock-down of subdued resulted in: E2F firefly, rep 1 = 71579; Renilla normaliser, rep 1 = 4236.
Silencing of lilli (lilliputian) came out at: E2F firefly, rep 1 = 77102; Renilla normaliser, rep 1 = 4484.
